Test results from US20080227698A1, “OLIGOPEPTIDES FOR TREATMENT OF OSTEOPOROSIS AND OTHER BONE DISEASES AND METHODS THEREOF” (Washington University, priority 2005, published 2008).
These are yes or no findings as the source states them, for the method shown. Some binding calls cover weakened binding; strength is not graded here. For some of these results: Where a sequence is shown, tags or fusion partners need not be part of it. One block for each binder: values may come before it.

By UniProt entry, the sequences of proteins in these tests, tags left out. Residues count along the entry.
UniProt O75581, residues 20-1613: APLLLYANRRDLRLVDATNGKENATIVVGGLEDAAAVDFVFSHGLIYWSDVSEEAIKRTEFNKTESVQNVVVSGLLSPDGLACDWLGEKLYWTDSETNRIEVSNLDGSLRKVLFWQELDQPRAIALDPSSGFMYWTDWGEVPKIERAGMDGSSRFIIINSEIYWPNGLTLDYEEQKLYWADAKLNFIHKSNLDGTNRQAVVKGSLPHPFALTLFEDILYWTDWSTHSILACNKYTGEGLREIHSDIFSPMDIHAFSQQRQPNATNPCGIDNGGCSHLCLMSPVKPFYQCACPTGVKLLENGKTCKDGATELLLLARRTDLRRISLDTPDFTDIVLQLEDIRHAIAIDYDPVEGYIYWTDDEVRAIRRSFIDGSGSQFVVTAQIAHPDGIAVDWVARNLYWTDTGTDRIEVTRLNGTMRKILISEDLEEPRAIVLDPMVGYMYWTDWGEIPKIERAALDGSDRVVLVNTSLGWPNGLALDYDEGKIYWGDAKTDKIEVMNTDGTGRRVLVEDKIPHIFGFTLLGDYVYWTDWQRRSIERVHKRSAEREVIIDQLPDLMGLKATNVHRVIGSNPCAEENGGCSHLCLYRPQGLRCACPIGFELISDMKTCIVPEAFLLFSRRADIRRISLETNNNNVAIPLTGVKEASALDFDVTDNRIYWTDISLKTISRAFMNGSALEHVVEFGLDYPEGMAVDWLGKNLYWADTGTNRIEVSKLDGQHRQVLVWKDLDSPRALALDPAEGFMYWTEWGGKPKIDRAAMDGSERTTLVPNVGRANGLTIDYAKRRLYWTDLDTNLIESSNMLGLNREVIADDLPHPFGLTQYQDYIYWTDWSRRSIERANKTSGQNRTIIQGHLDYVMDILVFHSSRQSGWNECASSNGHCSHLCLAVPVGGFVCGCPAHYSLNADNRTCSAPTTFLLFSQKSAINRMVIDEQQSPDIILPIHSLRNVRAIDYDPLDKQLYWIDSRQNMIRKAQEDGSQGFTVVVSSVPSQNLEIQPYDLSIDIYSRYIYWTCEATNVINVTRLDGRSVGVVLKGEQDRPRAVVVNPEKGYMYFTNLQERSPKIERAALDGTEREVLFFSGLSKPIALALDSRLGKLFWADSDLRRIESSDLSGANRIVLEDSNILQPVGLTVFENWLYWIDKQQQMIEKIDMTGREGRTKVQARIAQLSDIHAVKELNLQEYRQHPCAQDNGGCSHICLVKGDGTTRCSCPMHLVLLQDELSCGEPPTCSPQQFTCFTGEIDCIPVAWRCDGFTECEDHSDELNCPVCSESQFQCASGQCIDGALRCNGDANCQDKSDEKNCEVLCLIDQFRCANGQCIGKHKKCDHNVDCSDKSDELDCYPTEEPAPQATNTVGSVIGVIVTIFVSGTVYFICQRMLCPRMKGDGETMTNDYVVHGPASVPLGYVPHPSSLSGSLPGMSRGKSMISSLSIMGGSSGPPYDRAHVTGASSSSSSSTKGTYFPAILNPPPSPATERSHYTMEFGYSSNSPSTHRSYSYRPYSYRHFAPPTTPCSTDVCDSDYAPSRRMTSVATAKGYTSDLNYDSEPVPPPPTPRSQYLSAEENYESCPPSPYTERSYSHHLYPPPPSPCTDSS
UniProt O75197, residues 32-1615: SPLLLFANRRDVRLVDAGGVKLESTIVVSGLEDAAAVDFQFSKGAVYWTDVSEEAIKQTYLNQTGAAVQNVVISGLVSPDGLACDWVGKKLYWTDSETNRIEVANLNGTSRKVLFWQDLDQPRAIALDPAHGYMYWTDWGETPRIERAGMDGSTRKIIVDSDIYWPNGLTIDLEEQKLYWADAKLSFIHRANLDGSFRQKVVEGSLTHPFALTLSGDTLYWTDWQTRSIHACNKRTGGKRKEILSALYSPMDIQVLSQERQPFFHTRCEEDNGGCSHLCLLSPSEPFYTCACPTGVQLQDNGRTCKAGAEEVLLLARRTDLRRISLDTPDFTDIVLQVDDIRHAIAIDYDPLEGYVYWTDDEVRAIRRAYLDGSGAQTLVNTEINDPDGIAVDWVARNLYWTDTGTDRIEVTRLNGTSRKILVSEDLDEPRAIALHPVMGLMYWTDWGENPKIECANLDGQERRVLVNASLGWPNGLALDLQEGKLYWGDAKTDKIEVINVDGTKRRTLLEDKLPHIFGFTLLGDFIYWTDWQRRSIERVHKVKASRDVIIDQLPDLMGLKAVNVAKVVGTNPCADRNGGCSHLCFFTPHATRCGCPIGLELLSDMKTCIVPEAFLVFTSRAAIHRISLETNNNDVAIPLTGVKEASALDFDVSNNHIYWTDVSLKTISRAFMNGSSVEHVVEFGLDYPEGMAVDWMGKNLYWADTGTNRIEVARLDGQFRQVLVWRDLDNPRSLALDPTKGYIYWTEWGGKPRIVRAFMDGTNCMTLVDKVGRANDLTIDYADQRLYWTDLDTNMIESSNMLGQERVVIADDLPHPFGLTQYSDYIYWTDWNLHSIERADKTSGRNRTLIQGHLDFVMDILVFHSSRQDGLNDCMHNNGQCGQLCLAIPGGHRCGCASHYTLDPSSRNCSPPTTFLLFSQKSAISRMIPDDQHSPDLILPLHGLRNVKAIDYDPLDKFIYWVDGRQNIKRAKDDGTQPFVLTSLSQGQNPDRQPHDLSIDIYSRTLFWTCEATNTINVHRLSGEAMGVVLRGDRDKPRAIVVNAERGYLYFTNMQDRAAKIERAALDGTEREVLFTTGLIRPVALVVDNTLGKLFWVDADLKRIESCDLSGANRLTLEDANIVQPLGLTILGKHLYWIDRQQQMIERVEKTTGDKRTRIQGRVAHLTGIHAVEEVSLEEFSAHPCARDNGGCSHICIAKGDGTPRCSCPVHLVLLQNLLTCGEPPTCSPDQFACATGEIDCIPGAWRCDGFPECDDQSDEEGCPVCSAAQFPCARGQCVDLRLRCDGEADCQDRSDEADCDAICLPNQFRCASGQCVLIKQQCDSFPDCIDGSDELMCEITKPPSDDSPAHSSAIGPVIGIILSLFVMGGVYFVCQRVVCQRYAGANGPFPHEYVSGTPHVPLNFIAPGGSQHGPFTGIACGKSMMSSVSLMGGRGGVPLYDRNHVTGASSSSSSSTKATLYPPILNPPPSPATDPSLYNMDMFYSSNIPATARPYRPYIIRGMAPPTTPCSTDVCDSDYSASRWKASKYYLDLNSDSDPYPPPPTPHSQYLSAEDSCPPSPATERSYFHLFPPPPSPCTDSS

How the values were obtained:
[1] = target: LRP6 on LRP6-transduced HT1080 cells (HA-tagged) (UniProt O75581); assay: immunofluorescence with anti-Myc antibody of conditioned-medium Myc-DKK1 bound to LRP6-transduced HT1080 cells
[2] = target: LRP6 on LRP6-transduced HT1080 cells (HA-tagged) (UniProt O75581); assay: 125I-DKK1 (5 nM) binding to LRP6-transduced HT1080 cells, 3 h at 4 C
[3] = target: LRP6 on LRP6-transduced HT1080 cells (HA-tagged) (UniProt O75581); assay: binding of truncated Mesd mutants to cell surface LRP6 (FIG. 3B)
[4] = target: human Myc-tagged LRP5 on transiently transfected HEK293 cells (human) (UniProt O75197); assay: 125I-Mesd binding to transfected cells (FIG. 2)
[5] = target: human Myc-tagged LRP6 on transiently transfected HEK293 cells (human) (UniProt O75581); assay: 125I-Mesd binding to transfected cells (FIG. 2)
[6] = target: LRP6 on LRP6-transduced HT1080 cells (HA-tagged) (UniProt O75581); assay: competition against 125I-Mesd for LRP6 (FIG. 10C)
[7] = target: LRP6 on LRP6-transduced HT1080 cells (HA-tagged) (UniProt O75581); assay: 125I-Mesd binding to LRP6-transduced HT1080 cells (FIG. 1)
[8] = target: LRP6 on LRP6-transduced HT1080 cells (HA-tagged) (UniProt O75581); assay: time course of 125I-Mesd binding to LRP6-transduced HT1080 cells
[9] = target: human Myc-tagged LRP5 on transiently transfected HEK293 cells (human) (UniProt O75197); assay: 125I-Mesd (5 nM) binding to transiently transfected HEK293 cells
[10] = target: human Myc-tagged LRP6 on transiently transfected HEK293 cells (human) (UniProt O75581); assay: as above
[11] = target: human Myc-tagged LRP5 on transiently transfected HEK293 cells (human) (UniProt O75197); assay: competition binding assays with 125I-Mesd and 125I-DKK1 (FIG. 10)
[12] = target: human Myc-tagged LRP5 on transiently transfected HEK293 cells (human) (UniProt O75197); assay: 125I-Mesd (5 nM) binding to transiently transfected HEK293 cells (FIG. 2A)
[13] = target: human Myc-tagged LRP6 on transiently transfected HEK293 cells (human) (UniProt O75581); assay: as above

binding [1]: binds
B1: human Myc-tagged DKK1 (conditioned medium of transfected HEK293 cells) (ligand, UniProt O94907 32-266, looked up, not shown: small tags and cut ends)
chain: TLNSVLNSNAIKNLPPPLGGAAGHPGSAVSAAPGILYPGGNKYQTIDNYQPYPCAEDEECGTDEYCASPTRGGDAGVQICLACRKRRKRCMRHAMCCPGNYCKNGICVSSDQNHFRGEIEETITESFGNDHSTLDGYSRRTTLSSKMYHTKGQEGSVCLRSSDCASGLCCARHFWSKICKPVLKEGQVCTKHRRKGSHGLEIFQRCYCGEGLSCRIQKDHHQASNSSRLHTCQRH

binding [2]: binds
B2: human recombinant DKK1 protein (R&D Systems) (ligand, UniProt O94907 32-266, looked up)
chain: TLNSVLNSNAIKNLPPPLGGAAGHPGSAVSAAPGILYPGGNKYQTIDNYQPYPCAEDEECGTDEYCASPTRGGDAGVQICLACRKRRKRCMRHAMCCPGNYCKNGICVSSDQNHFRGEIEETITESFGNDHSTLDGYSRRTTLSSKMYHTKGQEGSVCLRSSDCASGLCCARHFWSKICKPVLKEGQVCTKHRRKGSHGLEIFQRCYCGEGLSCRIQKDHHQASNSSRLHTCQRH
modifications: 125I-iodinated

binding [3]: binds
B3: Mesd(12-195) (protein, not shown: small tags and cut ends)
chain: RKKKDIRDYNDADMARLLEQWEKDDDIEEGDLPEHKRPSAPIDFSKLDPGKPESILKMTKKGKTLMMFVTVSGNPTEKETEEITSLWQGSLFNANYDVQRFIVGSDRAIFMLRDGSYAWEIKDFLVSQDRCAEVTLEGQMYPGKGGGSKEKNKTKPEKAKKKEGDRKPRASKEDNRAGSRREDL
modifications: 125I-iodinated when used as radioligand

binding [4]: binds | binding [5]: binds | binding [6]: binds | binding [7]: binds | binding [8]: binds | binding [9]: binds | binding [10]: binds | binding [11]: binds | binding [12]: binds | binding [13]: binds
B4: recombinant mouse Mesd protein (wild type) (protein, not shown: small tags and cut ends)
chain: ADTPGEATPPPRKKKDIRDYNDADMARLLEQWEKDDDIEEGDLPEHKRPSAPIDFSKLDPGKPESILKMTKKGKTLMMFVTVSGNPTEKETEEITSLWQGSLFNANYDVQRFIVGSDRAIFMLRDGSYAWEIKDFLVSQDRCAEVTLEGQMYPGKGGGSKEKNKTKPEKAKKKEGDRKPRASKEDNRAGSRREDL
modifications: 125I-iodinated (IODO-GEN) when used as radioligand
